Laboratory results reported in the supplement of paper PMC10849652.
This is one part of the list.

Amino acid sequences for entries named in this document (tags omitted). A change or cut given only in a name is not applied to a line headed by its entry.
UniProt P28908: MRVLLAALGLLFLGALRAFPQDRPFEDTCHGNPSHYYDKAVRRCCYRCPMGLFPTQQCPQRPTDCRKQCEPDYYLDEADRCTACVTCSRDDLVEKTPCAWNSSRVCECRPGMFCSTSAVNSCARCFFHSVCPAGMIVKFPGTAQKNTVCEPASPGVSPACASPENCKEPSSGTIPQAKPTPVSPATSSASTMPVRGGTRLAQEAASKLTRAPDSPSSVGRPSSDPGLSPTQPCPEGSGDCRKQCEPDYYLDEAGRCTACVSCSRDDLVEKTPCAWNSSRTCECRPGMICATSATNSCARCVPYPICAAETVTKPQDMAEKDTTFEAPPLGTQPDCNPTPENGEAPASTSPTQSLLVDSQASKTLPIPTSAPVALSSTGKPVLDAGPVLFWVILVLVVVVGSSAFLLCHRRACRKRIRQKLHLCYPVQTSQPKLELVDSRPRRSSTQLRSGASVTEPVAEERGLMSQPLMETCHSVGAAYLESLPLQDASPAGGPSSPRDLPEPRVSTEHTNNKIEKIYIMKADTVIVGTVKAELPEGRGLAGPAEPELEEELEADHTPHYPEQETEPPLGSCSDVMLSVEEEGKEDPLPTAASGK
UniProt Q96SK2: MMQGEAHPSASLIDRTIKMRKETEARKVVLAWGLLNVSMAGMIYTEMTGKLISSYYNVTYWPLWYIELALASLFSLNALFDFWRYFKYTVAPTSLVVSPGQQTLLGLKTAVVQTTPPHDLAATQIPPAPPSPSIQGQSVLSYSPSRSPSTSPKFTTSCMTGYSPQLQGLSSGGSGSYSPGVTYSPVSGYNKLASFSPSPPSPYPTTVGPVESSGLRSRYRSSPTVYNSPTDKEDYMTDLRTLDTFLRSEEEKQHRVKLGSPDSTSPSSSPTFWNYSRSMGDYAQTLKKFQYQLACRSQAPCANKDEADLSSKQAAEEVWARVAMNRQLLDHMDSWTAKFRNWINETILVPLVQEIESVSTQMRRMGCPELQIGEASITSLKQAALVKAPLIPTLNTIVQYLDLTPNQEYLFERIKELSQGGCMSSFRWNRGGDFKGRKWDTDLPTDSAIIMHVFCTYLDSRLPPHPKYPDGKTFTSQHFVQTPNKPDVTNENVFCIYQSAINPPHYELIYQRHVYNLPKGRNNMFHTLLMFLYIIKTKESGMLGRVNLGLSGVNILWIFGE
UniProt Q86XT9, whole entry, looked up: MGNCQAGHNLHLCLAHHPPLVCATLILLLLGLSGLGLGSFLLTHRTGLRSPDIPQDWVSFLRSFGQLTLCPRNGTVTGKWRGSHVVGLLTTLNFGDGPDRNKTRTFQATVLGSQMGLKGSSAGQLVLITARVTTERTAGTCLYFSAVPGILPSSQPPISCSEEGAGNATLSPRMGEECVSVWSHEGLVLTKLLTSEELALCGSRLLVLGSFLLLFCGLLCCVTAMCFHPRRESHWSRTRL
UniProt Q8NFQ8: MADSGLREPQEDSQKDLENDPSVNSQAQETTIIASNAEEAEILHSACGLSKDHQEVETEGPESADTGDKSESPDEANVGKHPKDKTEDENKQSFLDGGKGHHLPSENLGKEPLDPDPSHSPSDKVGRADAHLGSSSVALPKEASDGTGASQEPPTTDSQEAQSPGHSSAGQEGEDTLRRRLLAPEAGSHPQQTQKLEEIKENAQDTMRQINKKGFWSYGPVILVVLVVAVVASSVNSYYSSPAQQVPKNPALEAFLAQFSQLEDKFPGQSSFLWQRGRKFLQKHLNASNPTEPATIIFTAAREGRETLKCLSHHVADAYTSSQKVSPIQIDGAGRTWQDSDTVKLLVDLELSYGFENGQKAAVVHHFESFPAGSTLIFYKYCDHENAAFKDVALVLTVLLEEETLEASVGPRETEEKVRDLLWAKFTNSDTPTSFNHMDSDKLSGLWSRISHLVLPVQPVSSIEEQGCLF
UniProt Q9H497: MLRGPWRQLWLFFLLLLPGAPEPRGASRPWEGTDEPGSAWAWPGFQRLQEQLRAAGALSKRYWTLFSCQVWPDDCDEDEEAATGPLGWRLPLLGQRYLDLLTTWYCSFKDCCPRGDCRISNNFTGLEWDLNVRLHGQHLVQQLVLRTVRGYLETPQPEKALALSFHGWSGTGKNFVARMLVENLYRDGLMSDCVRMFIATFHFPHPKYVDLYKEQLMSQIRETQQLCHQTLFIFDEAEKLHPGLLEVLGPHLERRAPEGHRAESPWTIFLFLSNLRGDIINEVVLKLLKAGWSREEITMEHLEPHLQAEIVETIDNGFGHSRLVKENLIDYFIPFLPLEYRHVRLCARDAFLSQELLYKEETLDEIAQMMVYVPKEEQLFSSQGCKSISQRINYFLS
UniProt O14657: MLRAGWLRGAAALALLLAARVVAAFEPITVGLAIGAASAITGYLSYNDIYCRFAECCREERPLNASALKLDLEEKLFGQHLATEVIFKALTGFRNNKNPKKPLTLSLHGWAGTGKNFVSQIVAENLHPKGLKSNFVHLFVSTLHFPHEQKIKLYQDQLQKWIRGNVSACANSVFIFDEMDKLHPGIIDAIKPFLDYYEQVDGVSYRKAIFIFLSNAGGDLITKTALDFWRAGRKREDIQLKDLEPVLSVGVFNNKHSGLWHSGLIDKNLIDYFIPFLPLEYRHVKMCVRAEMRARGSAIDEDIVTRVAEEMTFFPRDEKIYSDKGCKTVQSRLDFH
UniProt P62328: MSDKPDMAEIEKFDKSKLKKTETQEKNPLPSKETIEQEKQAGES
UniProt Q9BSE2: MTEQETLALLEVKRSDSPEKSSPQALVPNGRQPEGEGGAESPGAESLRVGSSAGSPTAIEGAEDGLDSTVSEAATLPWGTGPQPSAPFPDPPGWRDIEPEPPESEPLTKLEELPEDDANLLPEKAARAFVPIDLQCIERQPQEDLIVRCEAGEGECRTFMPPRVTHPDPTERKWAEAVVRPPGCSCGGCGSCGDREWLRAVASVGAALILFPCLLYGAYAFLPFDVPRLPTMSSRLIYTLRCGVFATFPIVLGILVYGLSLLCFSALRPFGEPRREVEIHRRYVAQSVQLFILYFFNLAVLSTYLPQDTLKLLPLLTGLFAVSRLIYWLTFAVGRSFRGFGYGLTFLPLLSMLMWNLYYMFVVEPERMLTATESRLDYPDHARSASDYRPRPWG
UniProt Q8NCS4: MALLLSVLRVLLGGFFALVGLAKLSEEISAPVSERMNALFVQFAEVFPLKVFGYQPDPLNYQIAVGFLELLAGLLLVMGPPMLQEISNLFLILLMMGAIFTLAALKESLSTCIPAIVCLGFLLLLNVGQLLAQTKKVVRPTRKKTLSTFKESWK
UniProt Q8NDV7: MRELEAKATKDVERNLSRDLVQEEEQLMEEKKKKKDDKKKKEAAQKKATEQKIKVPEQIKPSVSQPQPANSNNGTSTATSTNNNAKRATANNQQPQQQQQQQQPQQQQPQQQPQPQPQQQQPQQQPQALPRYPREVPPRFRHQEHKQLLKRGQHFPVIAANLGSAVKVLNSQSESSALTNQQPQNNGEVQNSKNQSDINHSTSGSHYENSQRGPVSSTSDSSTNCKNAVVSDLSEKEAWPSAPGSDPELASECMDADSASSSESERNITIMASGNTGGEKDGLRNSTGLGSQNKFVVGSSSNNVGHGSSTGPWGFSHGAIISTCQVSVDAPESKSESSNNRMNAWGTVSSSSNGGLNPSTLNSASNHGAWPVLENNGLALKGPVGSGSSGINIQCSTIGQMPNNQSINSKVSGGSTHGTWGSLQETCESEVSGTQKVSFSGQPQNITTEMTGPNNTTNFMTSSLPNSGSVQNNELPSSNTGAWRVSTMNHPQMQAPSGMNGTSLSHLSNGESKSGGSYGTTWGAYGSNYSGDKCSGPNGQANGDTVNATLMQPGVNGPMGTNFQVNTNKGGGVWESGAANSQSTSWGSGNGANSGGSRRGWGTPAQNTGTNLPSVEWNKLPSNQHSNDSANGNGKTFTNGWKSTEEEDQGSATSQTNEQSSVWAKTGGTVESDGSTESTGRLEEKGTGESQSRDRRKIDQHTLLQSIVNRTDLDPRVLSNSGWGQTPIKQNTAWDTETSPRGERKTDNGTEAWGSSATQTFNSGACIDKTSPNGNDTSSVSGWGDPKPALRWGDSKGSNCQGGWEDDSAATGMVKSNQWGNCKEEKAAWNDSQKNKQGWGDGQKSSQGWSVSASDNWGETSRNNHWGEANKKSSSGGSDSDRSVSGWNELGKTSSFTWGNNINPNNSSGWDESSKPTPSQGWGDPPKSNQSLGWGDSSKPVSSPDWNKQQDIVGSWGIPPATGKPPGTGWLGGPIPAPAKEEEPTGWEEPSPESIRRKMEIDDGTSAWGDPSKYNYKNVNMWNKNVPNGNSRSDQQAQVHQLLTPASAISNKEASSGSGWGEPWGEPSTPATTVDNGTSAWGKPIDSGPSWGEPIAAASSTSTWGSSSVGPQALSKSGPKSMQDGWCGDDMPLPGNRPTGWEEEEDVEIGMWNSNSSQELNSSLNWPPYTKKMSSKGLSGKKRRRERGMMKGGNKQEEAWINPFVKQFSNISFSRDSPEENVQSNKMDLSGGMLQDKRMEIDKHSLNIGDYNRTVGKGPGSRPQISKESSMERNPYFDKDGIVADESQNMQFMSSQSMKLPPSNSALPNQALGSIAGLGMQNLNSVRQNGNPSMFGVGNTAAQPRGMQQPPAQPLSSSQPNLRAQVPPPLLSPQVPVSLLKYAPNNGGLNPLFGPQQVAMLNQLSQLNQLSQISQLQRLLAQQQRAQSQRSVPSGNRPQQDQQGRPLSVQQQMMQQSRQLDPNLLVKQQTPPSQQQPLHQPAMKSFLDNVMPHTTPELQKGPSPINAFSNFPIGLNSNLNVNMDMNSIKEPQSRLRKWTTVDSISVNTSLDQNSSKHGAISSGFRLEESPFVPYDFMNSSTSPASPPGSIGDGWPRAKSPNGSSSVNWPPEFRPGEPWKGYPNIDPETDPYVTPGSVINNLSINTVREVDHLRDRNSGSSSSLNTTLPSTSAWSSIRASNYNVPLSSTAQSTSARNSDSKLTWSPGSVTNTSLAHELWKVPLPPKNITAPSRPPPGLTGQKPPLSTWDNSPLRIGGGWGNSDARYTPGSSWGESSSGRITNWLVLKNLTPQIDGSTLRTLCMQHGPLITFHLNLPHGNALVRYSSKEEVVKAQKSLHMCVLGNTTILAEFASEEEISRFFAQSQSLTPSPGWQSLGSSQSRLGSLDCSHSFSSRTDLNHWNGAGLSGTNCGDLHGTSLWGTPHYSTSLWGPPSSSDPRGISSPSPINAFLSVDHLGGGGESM
UniProt O43399: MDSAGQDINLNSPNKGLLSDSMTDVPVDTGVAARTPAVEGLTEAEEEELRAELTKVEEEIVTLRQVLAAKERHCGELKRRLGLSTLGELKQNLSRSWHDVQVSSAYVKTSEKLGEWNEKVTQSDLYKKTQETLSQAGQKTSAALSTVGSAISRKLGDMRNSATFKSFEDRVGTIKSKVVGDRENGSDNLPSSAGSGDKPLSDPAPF
UniProt Q9NWH2: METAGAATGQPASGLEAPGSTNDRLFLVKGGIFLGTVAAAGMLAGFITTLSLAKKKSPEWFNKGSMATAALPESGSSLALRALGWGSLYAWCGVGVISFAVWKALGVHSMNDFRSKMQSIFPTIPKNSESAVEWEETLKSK
UniProt Q9H0R3: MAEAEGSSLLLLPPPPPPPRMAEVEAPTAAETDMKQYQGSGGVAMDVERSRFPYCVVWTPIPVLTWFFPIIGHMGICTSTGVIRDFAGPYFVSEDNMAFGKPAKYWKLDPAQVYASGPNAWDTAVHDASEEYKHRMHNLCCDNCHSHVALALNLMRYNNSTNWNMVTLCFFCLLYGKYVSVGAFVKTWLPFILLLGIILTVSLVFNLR
UniProt Q2T9K0: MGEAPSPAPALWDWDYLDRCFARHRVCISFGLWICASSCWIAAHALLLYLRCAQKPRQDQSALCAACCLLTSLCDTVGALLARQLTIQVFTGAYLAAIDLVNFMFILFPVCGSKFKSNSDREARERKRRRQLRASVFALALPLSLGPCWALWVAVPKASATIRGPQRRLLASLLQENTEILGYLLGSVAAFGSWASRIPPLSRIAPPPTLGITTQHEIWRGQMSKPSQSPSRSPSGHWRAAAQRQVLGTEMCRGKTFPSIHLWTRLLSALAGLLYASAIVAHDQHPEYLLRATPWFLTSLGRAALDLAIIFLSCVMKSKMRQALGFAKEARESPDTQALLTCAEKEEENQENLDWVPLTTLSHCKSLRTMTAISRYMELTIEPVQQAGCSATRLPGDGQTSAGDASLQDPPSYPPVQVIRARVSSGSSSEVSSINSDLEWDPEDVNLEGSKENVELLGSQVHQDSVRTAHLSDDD
UniProt Q9BRR3: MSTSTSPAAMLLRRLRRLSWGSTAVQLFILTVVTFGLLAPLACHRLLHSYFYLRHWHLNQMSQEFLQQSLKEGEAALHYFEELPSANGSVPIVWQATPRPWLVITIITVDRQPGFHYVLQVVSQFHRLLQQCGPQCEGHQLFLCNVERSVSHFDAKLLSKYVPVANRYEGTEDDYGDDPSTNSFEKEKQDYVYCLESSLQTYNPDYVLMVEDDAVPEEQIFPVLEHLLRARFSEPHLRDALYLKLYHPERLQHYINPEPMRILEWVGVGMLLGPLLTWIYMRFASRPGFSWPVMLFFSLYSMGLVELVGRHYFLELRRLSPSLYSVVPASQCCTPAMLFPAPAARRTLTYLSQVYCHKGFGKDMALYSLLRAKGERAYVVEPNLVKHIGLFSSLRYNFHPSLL

Tests used:
Experiment in all cases: log2 fold change, soluble protein after heating vs DMSO (PISA); higher = thermal stabilisation; K562 lysate, 10 uM; active = over 0.2 and 3.5 SD of the protein, either way, in both replicates (recomputed)
alvocidib = compound: CN1CC[C@H](c2c(O)cc(O)c3c(=O)cc(-c4ccccc4Cl)oc23)[C@H](O)C1 [alvocidib]
How it was run: (§1)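 The values are log-two fold changes in thermal stability compared with solvent controls and come from duplicates. They were obtained by TMTpro 16plex LC-MS/MS, with channel sums equalised, on the supernatant after 21,000xg for 90 min. That supernatant came from crude K562 extract at 1 mg/mL protein treated with 10 μM compound for 30 min, heated for 3 min across 48°C-58°C, pooled and brought to 0.5% NP-40 at 4°C.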

Tubastatin A = compound: CN1CCc2c(c3ccccc3n2Cc2ccc(C(=O)NO)cc2)C1 [Tubastatin A]
How it was run: as §1

[1] = compound: CNC(=O)C1=CC=CC=C1NC2=NC(=NC=C2Cl)NC3=C(C=C(C=C3)N4CCOCC4)OC
How it was run: as §1

defactinib = compound: CNC(=O)c1ccc(Nc2ncc(C(F)(F)F)c(NCc3nccnc3N(C)S(C)(=O)=O)n2)cc1 [defactinib]
How it was run: as §1

encorafenib = compound: COC(=O)N[C@@H](C)CNc1nccc(-c2cn(C(C)C)nc2-c2cc(Cl)cc(NS(C)(=O)=O)c2F)n1 [encorafenib]
How it was run: as §1

[2] = compound: COC(=O)[C@H](CCSC)NC(=O)C1=C(C=C(C=C1)NC[C@H](CS)N)C2=CC=CC=C2
How it was run: as §1

[3] = compound: COc1cc2nc(-c3cc(F)ccc3O)nc(N[C@@H]3CNC[C@H]3C(C)(C)O)c2cc1OC
How it was run: as §1

[4] = compound: CNc1nc(-c2ccc3c(N)n[nH]c3c2)cc(N2C[C@@H](C(=O)NC3CCCCC3)CC[C@H]2C)n1
How it was run: as §1

alisertib = compound: COc1cc(Nc2ncc3c(n2)-c2ccc(Cl)cc2C(c2c(F)cccc2OC)=NC3)ccc1C(=O)O [alisertib]
How it was run: as §1

gefitinib = compound: COc1cc2ncnc(Nc3ccc(F)c(Cl)c3)c2cc1OCCCN1CCOCC1 [gefitinib]
How it was run: as §1

Measured: log2 fold change

TPCN1 isoform 3 (UniProt Q9ULQ1)
inactive: alvocidib -0.057 | Tubastatin A 0.061 | [1] 0.072 | defactinib 0.031 | encorafenib -0.01 | [2] -0.027 | [3] -0.025

TOX4 (UniProt O94842)
inactive: alvocidib -0.16 | Tubastatin A -0.006 | [1] 0.027 | defactinib 0.025 | [4] -0.022 | encorafenib -0.011 | [2] -0.082 | alisertib 0.028 | [3] -0.013 | gefitinib -0.016

TNRC6C isoform 2 (UniProt Q9HCJ0)
inactive: alvocidib -0.055 | Tubastatin A -0.069 | [1] 0.007 | [4] -0.205 | encorafenib -0.031 | [2] -0.289 | [3] 0.018

TNFRSF8 (UniProt P28908)
inactive: alvocidib -0.069 | Tubastatin A 0.043 | [1] 0.009 | defactinib -0.028 | [4] -0.005 | encorafenib 0.037 | [2] -0.025 | alisertib -0.005 | [3] -0.006 | gefitinib -0.004

TRABD (UniProt Q9H4I3)
inactive: alvocidib -0.047 | Tubastatin A 0.096 | [1] 0.052 | defactinib -0.026 | [4] 0.088 | encorafenib -0.022 | [2] 0.038 | alisertib 0.011 | [3] -0.043 | gefitinib 0.046

TMEM209 (UniProt Q96SK2)
inactive: alvocidib 0.112 | Tubastatin A -0.011 | [1] -0.26 | [4] -0.119 | [3] 0.039

TMEM219 (UniProt Q86XT9)
inactive: alvocidib -0.004 | Tubastatin A 0.063 | [1] 0.069 | defactinib 0.111 | [4] 0.098 | encorafenib 0.195 | [2] -0.093 | alisertib -0.057 | [3] -0.053 | gefitinib 0.128

TOR1AIP2 (UniProt Q8NFQ8)
inactive: alvocidib -0.032 | Tubastatin A -0.001 | [1] 0.019 | defactinib 0.01 | [4] 0.002 | encorafenib 0.014 | [2] -0.018 | alisertib 0.019 | [3] -0.025 | gefitinib -0.011

TNPO1 (UniProt Q92973)
inactive: alvocidib 0.103 | Tubastatin A -0.025 | [1] 0.001 | defactinib 0.005 | [4] -0.012 | encorafenib 0 | [2] 0.028 | alisertib 0.013 | [3] 0.01 | gefitinib 0.006

TOR3A (UniProt Q9H497)
inactive: alvocidib 0.01 | Tubastatin A -0.016 | [1] 0.004 | defactinib 0.01 | [4] 0.019 | encorafenib 0.006 | [2] -0.006 | alisertib 0.032 | [3] -0.367 | gefitinib 0.018

TOR1B (UniProt O14657)
inactive: alvocidib -0.006 | Tubastatin A -0.025 | [1] -0.001 | defactinib 0.048 | [4] -0.099 | encorafenib 0.031 | [2] 0.032 | alisertib -0.022 | [3] 0.015 | gefitinib 0.015

TMSB4X (UniProt P62328)
inactive: alvocidib 0.401 | Tubastatin A 0.102 | [1] -0.045 | encorafenib 0.043 | [2] -0.055 | alisertib -0.143 | [3] 0.063 | gefitinib -0.001

TOMM6 (UniProt Q96B49)
inactive: alvocidib 0.123 | [1] -0.099 | defactinib 0.013 | [4] -0.018 | encorafenib -0.066 | [2] -0.125

TMEM50A (UniProt O95807)
inactive: encorafenib 0.117 | [2] 0.315

TNIK (UniProt C9J338)
inactive: alvocidib -0.155 | [1] -0.211 | defactinib -0.014 | [4] 0.306 | encorafenib -0.012 | [2] 0.005 | [3] 0.076

TPRN (UniProt Q4KMQ1)
inactive: [4] -0.171

TPBG (UniProt Q13641)
inactive: [1] -0.127 | defactinib 0.038 | [4] 0.201 | encorafenib -0.039 | [2] 0.064

TMTC4 isoform 3 (UniProt Q5T4D3)
inactive: Tubastatin A -0.133 | [4] 0.145 | encorafenib 0.03 | [2] -0.04

TMEM267 (UniProt Q0VDI3)
inactive: alvocidib -0.12 | Tubastatin A 0.025 | [1] -0.066 | alisertib -0.319 | gefitinib -0.048

TMEM79 (UniProt Q9BSE2)
inactive: alisertib -0.027 | gefitinib -0.003

TOR1AIP1 (UniProt Q5JTV8)
inactive: [1] -0.056 | defactinib -0.004 | [4] 0.014 | alisertib -0.194 | [3] 0.011 | gefitinib -0.041

TMPO isoform 2 (UniProt P42167)
inactive: defactinib 0.058 | [4] 0.186 | encorafenib -0.113 | [2] -0.14

TOM1 (UniProt O60784)
inactive: alvocidib 0.023 | [1] 0.149 | defactinib -0.074 | [4] 0.007 | encorafenib -0.01 | [2] -0.099 | [3] -0.01

TMEM256 (UniProt Q8N2U0)
inactive: defactinib 0.14 | [4] 0.218 | encorafenib 0.073 | [2] -0.018 | [3] -0.255

TMEM35B (UniProt Q8NCS4)
inactive: Tubastatin A 0.103 | [1] 0.035 | defactinib -0.167 | [3] -0.218

TMEM94 isoform 2 (UniProt Q12767)
inactive: Tubastatin A -0.09 | [1] -0.022 | defactinib 0.059 | [4] -0.088 | encorafenib 0.06 | [2] -0.028 | [3] 0.076

TMEM205 (UniProt Q6UW68)
inactive: Tubastatin A 0.064 | [1] 0 | defactinib 0.025 | [4] -0.069 | encorafenib 0.057 | [2] -0.057 | alisertib 0.03 | [3] -0.043 | gefitinib 0.033

TNS1 (UniProt Q9HBL0)
inactive: alvocidib -0.033 | encorafenib -0.064 | [2] 0.096 | alisertib -0.141 | gefitinib 0.028

TPD52 isoform 3 (UniProt P55327)
inactive: Tubastatin A 0.145 | [1] -0.072 | encorafenib 0.03 | [2] 0.033 | [3] 0.061

TNIP2 (UniProt Q8NFZ5)
inactive: alvocidib -0.102 | [1] -0.163 | defactinib 0.049 | encorafenib 0.049 | [2] -0.062 | alisertib -0.181 | [3] -0.036 | gefitinib -0.037

TNIK isoform 5 (UniProt Q9UKE5)
inactive: alvocidib 0.012 | Tubastatin A -0.015 | [4] -0.04 | [3] 0.214

Quoted at random: 3 records from the list, in no set order.
TMEM35B (UniProt Q8NCS4)
inactive: Tubastatin A 0.103 | [1] 0.035 | defactinib -0.167 | [3] -0.218

TOR1B (UniProt O14657)
inactive: alvocidib -0.006 | Tubastatin A -0.025 | [1] -0.001 | defactinib 0.048 | [4] -0.099 | encorafenib 0.031 | [2] 0.032 | alisertib -0.022 | [3] 0.015 | gefitinib 0.015

TMPO isoform 2 (UniProt P42167)
inactive: defactinib 0.058 | [4] 0.186 | encorafenib -0.113 | [2] -0.14

Additional results:

TMEM273 isoform 2 (UniProt Q5T292)
inactive: Tubastatin A 0.096 | [1] 0.054

TNRC6A (UniProt Q8NDV7)
inactive: alvocidib 0.045 | [1] 0.007 | defactinib 0.011 | [4] -0.038 | encorafenib -0.145 | [2] 0.18 | alisertib -0.004 | [3] 0.154 | gefitinib 0.157

TPD52L2 isoform 3 (UniProt O43399)
inactive: alvocidib 0.127 | Tubastatin A 0.165 | [1] 0.144 | alisertib 0.094 | gefitinib -0.244

TMEM237 isoform 3 (UniProt Q96Q45)
inactive: alvocidib -0.028 | Tubastatin A -0.124 | defactinib -0.005 | [4] 0.024 | alisertib -0.035 | [3] -0.021 | gefitinib -0.039

TMEM242 (UniProt Q9NWH2)
inactive: alvocidib 0.074 | Tubastatin A 0.09 | defactinib -0.202 | [4] 0.115 | encorafenib 0.024 | [2] 0.133 | alisertib -0.002 | gefitinib -0.045

TPT1 (UniProt E9PJF7)
inactive: alvocidib 0.249 | [1] -0.191 | [3] 0.152

TMEM19 (UniProt Q96HH6)
inactive: Tubastatin A -0.048 | [1] -0.047 | defactinib 0.008 | encorafenib 0.042 | [2] -0.059 | [3] -0.045

TMEM8A (UniProt Q9HCN3)
inactive: alvocidib 0.148 | [1] 0.16 | defactinib 0.126 | encorafenib 0.041 | [2] -0.044 | [3] 0.045

TMEM222 (UniProt Q9H0R3)
inactive: Tubastatin A 0.014 | [1] -0.023 | [4] 0.163 | encorafenib 0.03 | [2] 0.145 | alisertib 0.068 | [3] -0.145 | gefitinib -0.097

TMEM44 (UniProt Q2T9K0)
inactive: [4] -0.006 | encorafenib 0.087 | [2] -0.207 | [3] 0.224

TMEM246 (UniProt Q9BRR3)
inactive: Tubastatin A -0.068 | [1] 0.041

TOPAZ1 (UniProt Q8N9V7)
inactive: Tubastatin A -0.353 | [1] 0.037 | defactinib -0.193 | encorafenib 0.021 | [2] 0.013 | [3] -0.106

TMEM98 (UniProt Q9Y2Y6)
inactive: alvocidib -0.015 | Tubastatin A -0.093 | alisertib 0.091 | gefitinib -0.055

TMEM268 isoform 3 (UniProt Q5VZI3)
inactive: alvocidib 0.058 | Tubastatin A -0.037 | [4] -0.015 | encorafenib 0.331 | [2] 0.113
